The list is a part of this screen's results and no random one: it gathers tests that were run many times, whatever their T/C, doses with no T/C, and many T/C values between a quarter and a half above the control. Other doses and runs of a compound stand elsewhere. T/C is the treated group as % of the vehicle group. Some entries give survivors of the animals treated and no T/C: the source holds a T/C of zero for them, seemingly a mark for toxic or unscored doses. Some survivor counts are full or nearly so, which does not show that the dose was tolerated: survival well below the control is almost never listed, so the zero probably covers shortened survival too. Counts of survivors are from the toxicity check (mostly the fifth day) where no day follows; animals may have died later. Schedule codes are those of the source, taken here to give the interval after Q, in days (D) or hours (H), and the number of doses after X. Some schedules carry Z or #; the key to these is not given. Where survival is the endpoint, the PubChem record calls one and a half times the control and up active, and a quarter to a half above the control has no call in these data; cut-offs in other NCI protocols can differ. Some doses were run more than once; their values stand side by side, smallest first. Additions like (4×) give the number of equal values in this list. Some T/C values carry the count of animals alive at the toxicity check (mostly the fifth day); without a count, all were alive then.
Tested on: L1210 leukemia ip in BDF1 mice, survival T/C
Assay: NCI In Vivo Anticancer Drug Screen. Data for tumor model L1210 Leukemia (intraperitoneal) in B6D2F1 (BDF1) mice
Conditions: T/C endpoint: mean survival time, higher T/C = longer survival
[1] = dose: 90.0 mg/kg/injection, schedule: Q## X Z (ip), vehicle: saline

O=P1(N(CCCl)CCCl)NCCCO1 (centres undefined)
survivor count (dose: 75.0 mg/kg/injection, schedule: Q01DX Z (ip), vehicle: methylcellulose (MC)): 6 of 6
survivor count (dose: 78.8 mg/kg/injection, schedule: Q01DX010 (ip), vehicle: saline): 10 of 10
T/C (dose: 80.0 mg/kg/injection, schedule: Q01DX001 (ip), vehicle: saline): 139 % of control
T/C (dose: 86.0 mg/kg/injection, schedule: Q01DX001 (ip), vehicle: saline): 147 % of control
T/C (dose: 89.0 mg/kg/injection, schedule: Q01DX001 (ip), vehicle: saline, evaluated on day 5): 142 % of control
T/C (dose: 89.0 mg/kg/injection, schedule: Q01DX001 (ip), vehicle: saline, evaluated on day 45): 142 % of control
T/C (dose: 90.0 mg/kg/injection, schedule: Q01DX010 (ip), vehicle: saline): 97, 97 [5 of 6 alive], 113, 114 % of control
T/C (dose: 90.0 mg/kg/injection, schedule: Q01DX Z (ip), vehicle: saline): 130 and 143 % of control
T/C (dose: 90.0 mg/kg/injection, schedule: Q02DX010 (ip), vehicle: saline): 132 % of control
T/C [1]: 133 % of control
survivor count [1]: 9 of 10
T/C (dose: 100.0 mg/kg/injection, schedule: Q01DX001 (ip), vehicle: saline, evaluated on day 5): 139 and 147 % of control
T/C (dose: 100.0 mg/kg/injection, schedule: Q01DX001 (ip), vehicle: saline, evaluated on day 7): 161 % of control
T/C (dose: 100.0 mg/kg/injection, schedule: Q01DX001 (ip), vehicle: saline, evaluated on day 30): 126, 136 (2×), 137, 138, 143, 147, 153, 155, 159, 164, 234, 247 % of control
T/C (dose: 100.0 mg/kg/injection, schedule: Q01DX001 (ip), vehicle: saline, evaluated on day 45): 136 and 148 % of control
T/C (dose: 100.0 mg/kg/injection, schedule: Q01DX001 (ip), vehicle: saline, evaluated on day 60): 88, 147, 148, 169, 223 % of control
T/C (dose: 100.0 mg/kg/injection, schedule: Q01DX001 (ip), vehicle: saline, evaluated on day 63): 165 % of control
T/C (dose: 100.0 mg/kg/injection, schedule: Q01DX001 (ip), vehicle: saline, evaluated on day 64): 161 % of control
T/C (dose: 100.0 mg/kg/injection, schedule: Q01DX001 (ip), vehicle: saline, run until all animals had died): 136 [3 of 4 alive], 141, 145, 167, 191 % of control
T/C (dose: 100.0 mg/kg/injection, schedule: Q01DX Z (ip), vehicle: saline): 89, 91, 116, 120, 132 % of control
T/C (dose: 100.0 mg/kg/injection, schedule: Q02DX010 (ip), vehicle: carboxymethylcellulose (CMC)): 115, 134, 150, 166, 168 % of control
T/C (dose: 100.0 mg/kg/injection, schedule: Q02DX010 (ip), vehicle: other): 130 % of control
T/C (dose: 100.0 mg/kg/injection, schedule: Q04DX002 (ip), vehicle: saline): 140 % of control
survivor count (dose: 100.0 mg/kg/injection, schedule: Q#A X Z (ip), vehicle: saline): 6 of 6
T/C (dose: 101.0 mg/kg/injection, schedule: Q01DX001 (ip), vehicle: saline): 148 % of control
T/C (dose: 104.0 mg/kg/injection, schedule: Q01DX001 (ip), vehicle: saline): 126 % of control
T/C (dose: 108.0 mg/kg/injection, schedule: Q01DX001 (ip), vehicle: saline): 148 % of control
T/C (dose: 117.0 mg/kg/injection, schedule: Q04DX002 (ip), vehicle: saline): 170, 174, 185, 192 % of control
T/C (dose: 125.0 mg/kg/injection, schedule: Q01DX001 (ip), vehicle: saline, evaluated on day 30): 133 and 208 % of control
T/C (dose: 125.0 mg/kg/injection, schedule: Q01DX001 (ip), vehicle: saline, evaluated on day 35): 178 % of control
T/C (dose: 125.0 mg/kg/injection, schedule: Q01DX001 (ip), vehicle: saline, evaluated on day 38): 130 % of control [5 of 6 alive]
T/C (dose: 133.0 mg/kg/injection, schedule: Q01DX001 (ip), vehicle: saline, evaluated on day 5): 222 % of control
T/C (dose: 133.0 mg/kg/injection, schedule: Q01DX001 (ip), vehicle: saline, evaluated on day 45): 165, 176, 222 % of control
T/C (dose: 133.0 mg/kg/injection, schedule: Q01DX001 (ip), vehicle: saline, evaluated on day 60): 215 % of control
survivor count (dose: 135.0 mg/kg/injection, schedule: Q## X006 (ip), vehicle: saline): 10 of 10
T/C (dose: 150.0 mg/kg/injection, schedule: Q01DX001 (ip), vehicle: saline, evaluated on day 5): 158 % of control
T/C (dose: 150.0 mg/kg/injection, schedule: Q01DX001 (ip), vehicle: saline, evaluated on day 20): 169 % of control
T/C (dose: 150.0 mg/kg/injection, schedule: Q01DX001 (ip), vehicle: saline, evaluated on day 30): 99, 152, 157, 176, 192, 205, 221, 225, 232, 233, 248, 263, 280, 312 % of control
T/C (dose: 150.0 mg/kg/injection, schedule: Q01DX001 (ip), vehicle: saline, evaluated on day 45): 158 and 167 % of control
T/C (dose: 150.0 mg/kg/injection, schedule: Q01DX001 (ip), vehicle: saline, evaluated on day 60): 146, 172, 256 % of control
T/C (dose: 150.0 mg/kg/injection, schedule: Q01DX001 (ip), vehicle: saline, run until all animals had died): 157 and 201 % of control
T/C (dose: 150.0 mg/kg/injection, schedule: Q01DX001 (ip), vehicle: water, evaluated on day 4): 179 and 340 % of control
T/C (dose: 150.0 mg/kg/injection, schedule: Q01DX001 (ip), vehicle: water, evaluated on day 5): 164, 256, 286 % of control
T/C (dose: 150.0 mg/kg/injection, schedule: Q01DX001 (ip), vehicle: water, evaluated on day 30): 162 and 340 % of control
